# Measurements taken from article PMC4255730.
# Biological target: T1, SUBEX-C57Y-GFP (misfolded variant of the STRUBBELIG extracellular domain, C57Y, fused to GFP) (A. thaliana) (UniProt Q8RWZ1)
# T1 sequence (chain, N-glycans at N70, N119, N243 (mainly oligomannosidic)): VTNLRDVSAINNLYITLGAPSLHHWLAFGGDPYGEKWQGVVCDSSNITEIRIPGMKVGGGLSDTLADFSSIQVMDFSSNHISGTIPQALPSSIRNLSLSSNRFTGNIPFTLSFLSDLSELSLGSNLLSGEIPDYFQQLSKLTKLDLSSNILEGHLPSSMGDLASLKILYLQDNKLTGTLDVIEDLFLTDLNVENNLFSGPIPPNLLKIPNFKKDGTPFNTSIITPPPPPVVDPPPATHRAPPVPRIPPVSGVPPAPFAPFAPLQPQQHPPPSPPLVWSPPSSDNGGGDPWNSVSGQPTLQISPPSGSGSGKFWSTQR
# Experiment: co-IP; GFP-tagged SUBEX variants captured on GFP trap beads (1.5 h, 4°C) from RIPA extracts of co-infiltrated N. benthamiana leaves, with or without 20 μM kifunensine; co-purified proteins detected by immunoblot with anti-HA or anti-mRFP
substance,measurement,value
SEL1L-HA (A. thaliana),binding,binds

# Results are given in words; binding and its absence hold for the method and conditions named. In cells and extracts the contact can be indirect. Binding can be weak; no strength is given. Tags and fused reporters may be left off the sequences shown.
